Results are given in words; binding and its absence hold for the method and conditions named. Some results given as binding are weak or reduced against the parent protein; the word gives no strength.
B1: EGA920 (peptide)
peptide: YADHCSQFPTDWICTLIP
B2: EGA921 (peptide)
peptide: YSEHCWLFPTDWICTLVP
B3: EGA922 (peptide)
peptide: YAAHCWQFPTDWICTLIP
B4: EGA924 (peptide)
peptide: YAEHCWLFPSDWICTLMP
B5: EGA925 (peptide)
peptide: YAEHCYMFPTDWICTLTA
B6: EGA927 (peptide)
peptide: YTEHCWLFPTDWICSLMP
B7: EGA929 (peptide)
peptide: YEQHCWHFPNDWICTLMT
B8: EGA930 (peptide)
peptide: YAEHCWLFPTDWICTLMT
B9: EGA931 (peptide)
peptide: YYEHCTLFPSDWICTLMT
B10: EGA932 (peptide)
peptide: YEEHCALFPTDWICTLH
B11: EGA933 (peptide)
peptide: YGEHCWQFPTDWICTLVT
B12: EGA934 (peptide)
peptide: YSEHCWLFPSDWICSLDT
B13: EGA935 (peptide)
peptide: YDEHCRQFPTDWICKLTT
B14: EGA936 (peptide)
peptide: YAEHCYRFPTDWICTLMS
B15: EGA937 (peptide)
peptide: YAGHCSRFPTDWICTLMA
B16: EGA938 (peptide)
peptide: YAQHCWQFPADWICTLIE
B17: EGA939 (peptide)
peptide: YDEHCLKFPADWICSLPR
B18: EGA940 (peptide)
peptide: YAGHCNLFPTDWICTLKT
B19: EGA941 (peptide)
peptide: YEEHCGLFPTDWICTLMD
B20: EGA942 (peptide)
peptide: YSEHCWLFPTDWICTLPT
B21: EGA944 (peptide)
peptide: YAEHCWMFPTDWICSLLP
B22: EGA945 (peptide)
peptide: YAEHCWQFPSDWICTLLP
B23: EGA946 (peptide)
peptide: YAEHCWRFPTDWICTLMT
B24: EGA947 (peptide)
peptide: YTSHCRHFPNDWICTLLP
B25: EGA948 (peptide)
peptide: YAEHCWQFPHDWICTLTK
B26: EGA949 (peptide)
peptide: YADHCWLFPNDWICTLIK
B27: EGA950 (peptide)
peptide: YAEHCWLFPTDWICTLRT
B28: EGA951 (peptide)
peptide: FQGHCALFPTDWICTLKS
B29: EGA952 (peptide)
peptide: YAEHCRLFPADWICSLMT
B30: EGA953 (peptide)
peptide: YAEHCGLFPTDWICTLMT
B31: EGA954 (peptide)
peptide: YREHCGQFPNDWICSLLT
B32: EGA955 (peptide)
peptide: YVEHCYQFPADWICTLKT
B33: EGA956 (peptide)
peptide: YAEHCRHFPSDWICTLTK
B34: EGA957 (peptide)
peptide: YAEHCSQFPTDWICSLLT
B35: EGA959 (peptide)
peptide: YAVHCWQFPADWICSLEM
B36: EGA960 (peptide)
peptide: YEEHCLQFPADWICTLLP
B37: EGA961 (peptide)
peptide: YAEHCGMFPNDWICSLTK
B38: EGA962 (peptide)
peptide: YADHCAHFPTDWICTLMT
B39: EGA963 (peptide)
peptide: YPEHCWLFPTDWICTLVA
B40: EGA964 (peptide)
peptide: YAEHCWQFPADWICSLPS
B41: EGA965 (peptide)
peptide: YAEHCWQFPTDWICSLLD
B42: EGA966 (peptide)
peptide: YAQHCWMFPADWICTLMT
B43: EGA967 (peptide)
peptide: YLAHCWHFPNDWICSLLP
B44: EGA968 (peptide)
peptide: YTKHCQRLPTYKICNLFM
B45: EGA969 (peptide)
peptide: YSEHCWLFPTDWICHLMP
B46: EGA970 (peptide)
peptide: YAEHCYNFPSDWICSLLT
B47: EGA971 (peptide)
peptide: YAEHCWQFPTDWICSLMT
B48: EGA972 (peptide)
peptide: YEEHCWQFPADWICTLLT
B49: EGA973 (peptide)
peptide: YAEHCWHFPSDWICTLKE
B50: EGA974 (peptide)
peptide: YAMHCSQFPSDWICTLMT
B51: EGA975 (peptide)
peptide: YAEHCRQFPTDWICSLMT
B52: EGA976 (peptide)
peptide: YEEHCWLFPSDWICTLMP
B53: EGA977 (peptide)
peptide: YAEHCWLFPTDWICNLIP
B54: EGA978 (peptide)
peptide: YEKHCYQFPSDWICSLKT
B55: EGA980 (peptide)
peptide: IPDDCYWTVWGRECLLVP
B56: EGA981 (peptide)
peptide: LTDGCYWTIWGRECLLLP
B57: EGA982 (peptide)
peptide: LPDGCWWSTWGRECLLVP
B58: EGA984 (peptide)
peptide: LPEGCYWAIWGKECLLPL
B59: EGA985 (peptide)
peptide: DPYGCYWAAWGRECLLLP
B60: EGA986 (peptide)
peptide: LPEGCWWSVWGRECLLPS
B61: EGA987 (peptide)
peptide: LPEDCWWATWGRECLLQP
B62: EGA988 (peptide)
peptide: LPEGCHWAIWGRECLLPP
B63: EGA989 (peptide)
peptide: LPEGCWWANWGRECLLLP
B64: EGA991 (peptide)
peptide: IPEGCWWAQWGRECILAA
B65: EGA992 (peptide)
peptide: ISDGCFWAVWGRECLLAA
B66: EGA993 (peptide)
peptide: GTDGCWWEVWGRECLLTP
B67: EGA994 (peptide)
peptide: LPEGCWWSPWGRECLLPP
B68: EGA995 (peptide)
peptide: LTEPCYWTTWGKECHMPR
B69: EGA996 (peptide)
peptide: DEAGCWWEIWGRECILSP
B70: EGA998 (peptide)
peptide: LHDGCWWEVWGRECFVPS

What follows are binders tested against EGFR (UniProt P00533) (assay: peptide screen, Example 48).
B1 was tested, and the binding was “binds”. B2 was tested, and the binding was “binds”. With B3 the binding was “binds”. For B4, the binding was “binds”. For B5, the binding was “binds”. For B6, the binding was “binds”. With B7 the binding was “binds”. In the case of B8, the binding is reported as “binds”. With B9 the binding was “binds”. With B10 the binding was “binds”. For B11, the binding was “binds”. In the case of B12, the binding is reported as “binds”. In the case of B13, the binding is reported as “binds”. B14 was tested, and the binding was “binds”. In the case of B15, the binding is reported as “binds”. In the case of B16, the binding is reported as “binds”. With B17 the binding was “binds”. With B18 the binding was “binds”. In the case of B19, the binding is reported as “binds”. In the case of B20, the binding is reported as “binds”. For B21, the binding was “binds”. B22 was tested, and the binding was “binds”. For B23, the binding was “binds”. For B24, the binding was “binds”. In the case of B25, the binding is reported as “binds”. B26 was tested, and the binding was “binds”. In the case of B27, the binding is reported as “binds”. For B28, the binding was “binds”. In the case of B29, the binding is reported as “binds”. B30 was tested, and the binding was “binds”. B31 was tested, and the binding was “binds”. In the case of B32, the binding is reported as “binds”. With B33 the binding was “binds”. In the case of B34, the binding is reported as “binds”. With B35 the binding was “binds”. In the case of B36, the binding is reported as “binds”. In the case of B37, the binding is reported as “binds”. B38 was tested, and the binding was “binds”. For B39, the binding was “binds”. With B40 the binding was “binds”. For B41, the binding was “binds”. B42 was tested, and the binding was “binds”. For B43, the binding was “binds”. With B44 the binding was “binds”. For B45, the binding was “binds”. In the case of B46, the binding is reported as “binds”. In the case of B47, the binding is reported as “binds”. In the case of B48, the binding is reported as “binds”. B49 was tested, and the binding was “binds”. With B50 the binding was “binds”. B51 was tested, and the binding was “binds”. B52 was tested, and the binding was “binds”. For B53, the binding was “binds”. B54 was tested, and the binding was “binds”. With B55 the binding was “binds”. B56 was tested, and the binding was “binds”. B57 was tested, and the binding was “binds”. In the case of B58, the binding is reported as “binds”. B59 was tested, and the binding was “binds”. For B60, the binding was “binds”. With B61 the binding was “binds”. With B62 the binding was “binds”. For B63, the binding was “binds”. In the case of B64, the binding is reported as “binds”. B65 was tested, and the binding was “binds”. For B66, the binding was “binds”. In the case of B67, the binding is reported as “binds”. In the case of B68, the binding is reported as “binds”. B69 was tested, and the binding was “binds”. For B70, the binding was “binds”.
